Source: PubChem BioAssay AID588499 (NMMLSC, 2011)
Screen size: about 360,000 compounds; about 610 (0.17%) were called active. The inconclusive results got no clear call from the source; some entries with a clear call stand among them for comparison. Rule as the data show it: active = inhibition above about 30%; inconclusive = no clear call, values can overlap the other calls; inactive = below that.

Test system: Botulinum neurotoxin type A light chain protease (Clostridium botulinum A str. ATCC 3502)
Assay: blockers of BoNT/A LC substrate cleavage – biochemical, flow cytometry, MLPCN library, primary screen (AID 588499); also: plate controls were buffer without enzyme for full effect and enzyme alone for no effect
Settings: multiplex microsphere protease substrate cleavage, at 10 µM, active compounds read high

Compound	inhibition
CCCCC#Cc1ccc(C(=O)NNC(=O)Nc2ccccc2)o1	inconclusive: -2.6%
Cc1cc(/C=C(\C#N)C(=O)N2CCOCC2)c(C)n1C1CCCC1	inconclusive: -20.3%
O=C(c1cc(-c2ccc(O)cc2)on1)N1CCN(c2ccc(F)cc2)CC1	inactive: -1.3%
Cn1nc(C(F)(F)F)c(-c2ccccc2)c1NC(=O)c1nccnc1C(=O)O	inconclusive: 13.7%
CCOC(=O)c1cccc(NC(=O)CSc2nc3ccccc3c(=O)n2CCOC)c1	inconclusive: 0%
CCN(CC(=O)Nc1c(F)cccc1F)C(=O)c1ccc2c(c1)S(=O)(=O)N=C1CCCCCN12	inactive: 1.7%
O=[N+]([O-])/C=C\c1ccc(N2CCCC2)c(F)c1	active: 60.2%
CCCCOc1ccc(-c2nnn(CC(=O)NCCc3c[nH]c4ccccc34)n2)cc1	inconclusive: -2.5%
CC[C@]12c3[nH]c4cc(-c5ccco5)ccc4c3CCN1C(=O)[C@@H](CC(=O)NCCc1ccccn1)C[C@@H]2C(=O)N1CCN(C(=O)c2ccco2)CC1	inactive: -0.3%
COc1ccc(-c2nnc(SCc3cccc(C#N)c3)o2)cc1	inconclusive: -3.8%
Nc1c(C(=O)N2CCCC2)sc2nc(-c3ccccc3)ccc12	inconclusive: -43.6%
CNc1nc(CCN2C(=O)c3ccccc3C2=O)cs1	inconclusive: -5%
CS(=O)(=O)c1ccc2nc(NC(=O)c3ccc(=O)[nH]c3)sc2c1	inactive: -7%
Cc1cc(Cl)c2oc(C(=O)NCCC3CCCCO3)c(C)c2c1 (centres undefined)	inconclusive: -1.4%
O=S(=O)(c1ccc(-c2ccon2)s1)N1CCN(c2ccccn2)CC1	inactive: -0.3%
CCN(CC)CCCNc1nc(-n2nc(C)cc2C)nc2sc3c(c12)CC(C)(C)OC3	inconclusive: -19.5%
O=C(CN1CCN(c2ccccc2)CC1)Nc1c(C(=O)C2CC2)oc2ccccc12	inconclusive: 2.5%
O=C(NCc1ccccc1)c1ccc(COCC(F)(F)F)o1	inconclusive: -3.3%
CSC1=C(C#N)C(c2ccccc2C)C(C#N)=C(N)N1 (centres undefined)	inconclusive: -2.4%
CC(=O)NC1(C(F)(F)F)N=C2SCCN2C1=O (centres undefined)	inconclusive: -8.4%

Part of the list above in order of molecular weight, high to low.
Compound	inhibition
CCOC(=O)c1cccc(NC(=O)CSc2nc3ccccc3c(=O)n2CCOC)c1	inconclusive: 0%
O=C(CN1CCN(c2ccccc2)CC1)Nc1c(C(=O)C2CC2)oc2ccccc12	inconclusive: 2.5%
Cc1cc(/C=C(\C#N)C(=O)N2CCOCC2)c(C)n1C1CCCC1	inconclusive: -20.3%
O=C(NCc1ccccc1)c1ccc(COCC(F)(F)F)o1	inconclusive: -3.3%
CSC1=C(C#N)C(c2ccccc2C)C(C#N)=C(N)N1 (centres undefined)	inconclusive: -2.4%

Further entries follow.

Compound	inhibition
Cc1ccc(NC(=O)C2CCCCC2C(=O)O)cc1C (centres undefined)	inconclusive: -1.6%
COc1ccc2sc(/C=C/c3ccccc3O)[n+](C)c2c1	inconclusive: 36.1%
COc1ccc(CN2CCC(C(=O)N3CCN(c4ccccc4F)CC3)CC2)cc1OC	inactive: -0.5%
Cn1cccc1Cc1nnc(SCC(=O)N2CCN(c3ccccc3)CC2)n1-c1ccc(F)cc1	inconclusive: -2.4%
O=c1c(C(c2ccc(Cl)cc2)c2c(O)nc3n(c2=O)CCS3)c(O)nc2n1CCS2	inconclusive: -35.3%
COc1ccc(/C=N/NC(=O)c2cccc([N+](=O)[O-])c2)cc1O	inactive: 0.1%
O=C(c1cc(-c2ccncc2)nc2ccccc12)N1CCC2(CC1)OCCO2	inconclusive: -0.1%
O=C1CCC(C(=O)OCC(=O)N2N=C3/C(=C\c4ccccc4)CCCC3C2c2ccccc2)N1 (centres undefined)	inactive: -0.6%
c1csc(-c2noc(CN3CCOCC3)n2)c1	inconclusive: -8.4%
c1ccc2c(c1)nnn2Cc1nnc2sc(-c3ccc4c(c3)OCCO4)nn12	inconclusive: -0.1%
COc1cccc(C(=O)NCc2ccc3[nH]c(C)cc3c2)c1	active: 52.1%
N#Cc1ccccc1NC(=O)CNc1ccccc1N1CCCCC1	inconclusive: -1.6%
O=C(NCCCN1CCOCC1)c1ccc(CSc2ccc(Cl)cc2)cc1	inactive: 0.4%
Cc1c(N=Cc2ccco2)c(=O)n(-c2ccccc2)n1C	inactive: 0%
CCCCNC(=S)NCc1ccc2c(c1)cc(C)n2C	active: 29.6%
O=C(Cc1ccccc1)N/N=C/c1ccc[nH]1	inconclusive: -5.5%
CCOC(=O)c1cccc(NC(=O)c2ccco2)c1	inconclusive: -0.5%
COc1cc(/C=C2/SC(=S)N(CC(=O)Nc3nc4ccccc4s3)C2=O)cc(OC)c1OC	active: 40.1%
Cc1ccc2c3c(c(SCC(=O)Nc4nonc4C)nc2c1)CCCC3	inconclusive: 1.9%
Cc1ccc(C)c(-n2c(C)cc(/C=N/NC(=O)c3c(C)nc4cc(C)ccn34)c2C)c1	inactive: -1.9%

Compound	inhibition
CCCCS(=O)(=O)Nc1ccc2ncn(C)c(=O)c2c1	inactive: 0.1%
COCCNC(=S)Nc1ccc(N2CCOCC2)c(S(=O)(=O)Nc2ccccc2OC)c1	inactive: -0.3%
CCOC(=O)C1CCN(C(=O)c2ccccc2N(C)S(C)(=O)=O)CC1	inconclusive: 4.6%
COc1cccc(OC)c1C(=O)N1CCOCC1	inconclusive: 3.1%
CCOc1ccccc1N=C1NC(=O)CS1	inconclusive: -2%
Cc1nc2ncnn2c(C)c1CCC(=O)Nc1csc(N)n1	inconclusive: 6.3%
Cc1cc(C(=O)Nc2sc(C)c(C)c2C#N)c(C)o1	inconclusive: -0.9%
O=c1c2c([nH]c3ccccc13)CCCCCC2	inconclusive: -0.2%
O=[N+]([O-])c1ccccc1CSc1nnc2ccccn12	inactive: -1.1%
CN(CC(=O)N1CCCC1)S(=O)(=O)c1cc(Cl)ccc1Cl	inconclusive: -7.5%
C=CCN1C(=O)c2ccc(C(=O)N(CC)CC(=O)Nc3cc(Cl)ccc3C)cc2C1=O	inactive: 6.5%
O=c1oc2ccccc2cc1-c1nc2c(s1)CCc1ccccc1-2	active: 64.2%
Cc1ccnc(-n2c(C)nc3ccccc3c2=O)c1	inactive: -0.5%
O=C(CN1C(=O)c2ccccc2C1=O)NCc1ccncc1	inactive: 6.8%
N#Cc1c2n(c3c(N)ncnc13)CCCCC2	inconclusive: -3.4%
COC(=O)[C@H](Cc1c[nH]c2ccccc12)NC(=O)Nc1ccccc1OC	inconclusive: -49.9%
CC(=O)c1ccc(OCC(=O)N2CCN(S(=O)(=O)c3ccc(Br)s3)CC2)cc1	inconclusive: -0.5%
CCCCCc1ccc(CC(=O)O)cc1	inconclusive: -6.5%
CC(C)c1ccccc1NC(=O)COC(=O)CCN1C(=O)/C(=C\C=C\c2ccccc2)SC1=S	active: 39.6%
